Data as given in PubChem BioAssay AID1508588 (Peter MacCallum Cancer Centre, 2020).
Screen: 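Which gene losses make BRAF-mutant melanoma cells more responsive to vemurafenib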 (primary screen). System: human WM266.4 melanoma cells (BRAF V600 mutant). Reagents: siRNA pool against human genes, 40 nM. Timing: 96 h from transfection to read-out. Conditions: vemurafenib 300 nM (about IC25), added 48 h after transfection, for 48 h; comparison arm got DMSO vehicle only. Measurement: 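Cell gain (DAPI nuclei at end minus before drug, mean of two replicates) and medium lactate by absorbance per cell, both as ratio to non-targeting siRNA, also grouped into fold-change classes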. Scale: cell gain with vemurafenib: higher = more cell gain than with non-targeting siRNA; lactate per cell with vemurafenib: higher = more lactate made per cell. Call rule: 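Enhancement is called by pairing each knock-down's vehicle-arm and drug-arm fold-change classes for viability or glycolysis; which class combinations qualify is not given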. Calls: active = enhances vemurafenib effect; inactive = no enhancement seen.
The whole screen tested about 18,000 reagents; this is a random part of them. Over the whole deposit, 790 (4.4%) got an active call. 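Calls rest on a combination of fold-change classes in drug and vehicle arms, not all shown here.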 Unmarked entries are inactive.

SLC16A12 [SID152154220] gave cell gain with vemurafenib 0.99; lactate per cell with vemurafenib 0.75.
NFYC (nuclear transcription factor Y subunit gamma) [SID152150896] gave cell gain with vemurafenib 0.42; lactate per cell with vemurafenib 1.31.
PRSS27 (serine protease 27) [SID134311396] showed cell gain with vemurafenib 0.58; lactate per cell with vemurafenib 0.98.
KRT5 (keratin 5) [SID152148144] showed cell gain with vemurafenib 0.5; lactate per cell with vemurafenib 1.71.
With knock-down of HLA-DPB1 (major histocompatibility complex, class II, DP beta 1) [SID152154579], the screen gave cell gain with vemurafenib 0.99; lactate per cell with vemurafenib 0.93.
Silencing of SPINK2 (serine peptidase inhibitor Kazal type 2) [SID152152609] came out at: cell gain with vemurafenib 0.36; lactate per cell with vemurafenib 0.51.
With knock-down of NKD2 (NKD inhibitor of Wnt signaling pathway 2) [SID134322490], the record shows cell gain with vemurafenib 0.45; lactate per cell with vemurafenib 1.33.
RGS6 (regulator of G protein signaling 6) [SID152149749] gave cell gain with vemurafenib 0.63; lactate per cell with vemurafenib 1.46.
Knock-down of AGXT2 (alanine--glyoxylate aminotransferase 2) [SID134314526] came out at: cell gain with vemurafenib 0.35; lactate per cell with vemurafenib 0.26.
FIS1 (fission, mitochondrial 1) [SID135624080] scored cell gain with vemurafenib 0.4; lactate per cell with vemurafenib 1.62.
SNX33 (sorting nexin 33) [SID135623039] showed cell gain with vemurafenib 0.79; lactate per cell with vemurafenib 1.12.
ISL1 (ISL LIM homeobox 1) [SID152150573] showed cell gain with vemurafenib 0.74; lactate per cell with vemurafenib 0.86.
Silencing of PBXIP1 (PBX homeobox interacting protein 1) [SID134319472] came out at: cell gain with vemurafenib 0.75; lactate per cell with vemurafenib 0.72.
For NCLN (nicalin) [SID152156296], the values are cell gain with vemurafenib 0.43; lactate per cell with vemurafenib 1.27.
PDE4B (phosphodiesterase 4B) [SID135621425] gave cell gain with vemurafenib 1.03; lactate per cell with vemurafenib 0.77.
For AGO3 (argonaute RISC catalytic component 3) [SID152155756], the values are cell gain with vemurafenib 1.11; lactate per cell with vemurafenib 1.09.
Silencing of GPI (glucose-6-phosphate isomerase) [SID134310663] gave: cell gain with vemurafenib 0.51; lactate per cell with vemurafenib 0.24.
Against GTF2B (general transcription factor IIB) [SID152154998], the values are cell gain with vemurafenib 0.62; lactate per cell with vemurafenib 0.92.
Silencing of RRP9 [SID152152435] resulted in: cell gain with vemurafenib 0.28; lactate per cell with vemurafenib 1.81.
After knock-down of BTN3A1 (butyrophilin subfamily 3 member A1) [SID135623680], the record shows cell gain with vemurafenib 0.52; lactate per cell with vemurafenib 1.19.
SHCBP1L (SHC binding and spindle associated 1 like) [SID135622796] showed cell gain with vemurafenib 0.76; lactate per cell with vemurafenib 1.1.
Against HECW1 [SID152155008], the values are cell gain with vemurafenib 0.84; lactate per cell with vemurafenib 0.94.
With knock-down of FAM174C (family with sequence similarity 174 member C) [SID134324564], the screen gave cell gain with vemurafenib 0.53; lactate per cell with vemurafenib 0.84.
Silencing of DTD2 (D-aminoacyl-tRNA deacylase 2) [SID152148234] came out at: cell gain with vemurafenib 0.64; lactate per cell with vemurafenib 0.79.
For TNFRSF9 (TNF receptor superfamily member 9) [SID135621504], the values are cell gain with vemurafenib 0.45; lactate per cell with vemurafenib 1.65.
Silencing of MYBPHL (myosin binding protein H like) [SID152155778] came out at: cell gain with vemurafenib -0.03; lactate per cell with vemurafenib 2.4.
For IAH1 (isoamyl acetate hydrolyzing esterase 1 (putative)) [SID152148806], the entry reads cell gain with vemurafenib 0.4; lactate per cell with vemurafenib 0.8.
Against RGS17 (regulator of G protein signaling 17) [SID152152156], the values are cell gain with vemurafenib 0.3; lactate per cell with vemurafenib 1.77.
NMRK1 (nicotinamide riboside kinase 1) [SID134311962] gave cell gain with vemurafenib 0.77; lactate per cell with vemurafenib 0.47.
For GALK1 (galactokinase 1) [SID56479189], the entry reads cell gain with vemurafenib 0.45; lactate per cell with vemurafenib 2.25.
Against TMPRSS3 (transmembrane serine protease 3) [SID135621129] the deposit lists cell gain with vemurafenib 0.68; lactate per cell with vemurafenib 1.02.
Against PPP2R2C (protein phosphatase 2 regulatory subunit Bgamma) [SID152153596], the entry reads cell gain with vemurafenib 1.04; lactate per cell with vemurafenib 1.43.
Against ZNF112 (zinc finger protein 112) [SID152154016], the values are cell gain with vemurafenib 0.57; lactate per cell with vemurafenib 2.17.
TRIM64C (tripartite motif containing 64C) [SID152148296] gave cell gain with vemurafenib -0.15; lactate per cell with vemurafenib 3.58.
Against TRIM64C (tripartite motif containing 64C) [SID152151029], the values are cell gain with vemurafenib 0.95; lactate per cell with vemurafenib 0.92.
With knock-down of KRT7 (keratin 7) [SID152154818], the record shows cell gain with vemurafenib 0.81; lactate per cell with vemurafenib 0.44.
SLC18A2 [SID135621367] showed cell gain with vemurafenib 0.6; lactate per cell with vemurafenib 0.93.
Silencing of TBXT (T-box transcription factor T) [SID134315741] gave: cell gain with vemurafenib 0.88; lactate per cell with vemurafenib 0.63.
MRAP2 (melanocortin 2 receptor accessory protein 2) [SID152147635] gave cell gain with vemurafenib 0.74; lactate per cell with vemurafenib 1.62.
For IDH3G [SID134314116], the values are cell gain with vemurafenib 0.55; lactate per cell with vemurafenib 0.55.

Already shown: 3 of the entries above.
RGS17 (regulator of G protein signaling 17) [SID152152156]: cell gain with vemurafenib = 0.3; lactate per cell with vemurafenib = 1.77
NMRK1 (nicotinamide riboside kinase 1) [SID134311962]: cell gain with vemurafenib = 0.77; lactate per cell with vemurafenib = 0.47
GALK1 (galactokinase 1) [SID56479189]: cell gain with vemurafenib = 0.45; lactate per cell with vemurafenib = 2.25
